PubChem BioAssay AID2551 (National Center for Advancing Translational Sciences (NCATS), 2010)
The campaign covered roughly 310,000 compounds. About 17,000 (5.5%) were called active. The inconclusive results got no clear call from the source; some entries with a clear call stand among them for comparison. Calls follow the shape of the dose curve; as a rule, active = well fitted inhibition curve with a large enough effect; inconclusive = small, poorly fitted or top-dose-only effect, or effect the other way; inactive = no such curve, though single readings can be large or run the other way. Potencies of inconclusive entries are doubtful fits and often do not repeat.

Chains of the proteins cited; added tags and fusions are not shown. Lines headed by an entry give the natural chain unless they say otherwise; changes in a name come on top.
UniProt P51450: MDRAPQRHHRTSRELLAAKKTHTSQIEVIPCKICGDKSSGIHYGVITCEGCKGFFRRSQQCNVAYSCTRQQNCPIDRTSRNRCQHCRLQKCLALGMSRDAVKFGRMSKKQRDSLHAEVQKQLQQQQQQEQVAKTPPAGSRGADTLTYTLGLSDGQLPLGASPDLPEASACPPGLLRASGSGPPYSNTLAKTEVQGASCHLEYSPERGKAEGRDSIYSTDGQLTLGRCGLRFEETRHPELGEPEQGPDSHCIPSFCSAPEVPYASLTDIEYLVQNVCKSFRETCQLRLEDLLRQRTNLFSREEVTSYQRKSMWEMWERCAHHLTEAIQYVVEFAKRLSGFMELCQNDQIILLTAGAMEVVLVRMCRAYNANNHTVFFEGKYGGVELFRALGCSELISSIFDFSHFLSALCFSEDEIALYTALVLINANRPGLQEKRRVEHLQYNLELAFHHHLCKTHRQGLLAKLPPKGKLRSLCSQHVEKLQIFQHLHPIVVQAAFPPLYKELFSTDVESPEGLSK

target: Nuclear receptor ROR-gamma (Mus musculus) (UniProt P51450); experiment: qHTS for inhibitors of ROR gamma transcriptional activity; conditions: Drosophila S2 Gal4-RORgamma UAS-luciferase reporter, 20 h; activity change, negative = inhibition: at 53.6 µM (top of the series); also: nearly all actives have a fitted effect of over 60% in size
How it was run: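 Luminescence from a UAS-regulated Photinus luciferase reporter in stably transfected Drosophila Schneider cells is measured; decreased signal marks ROR gamma inhibition. Fusion expression is induced by 700 uM copper sulfate for 20 hr.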
% is scaled to controls: 0 for no effect and ±100 for the full control effect; potency is read from the fitted curve at half-maximal effect.

Question: Which “activity change, negative = inhibition” value does the source give for CC(=O)Nc1ccc(S(=O)(=O)NCc2nc(-c3ccccc3Cl)no2)cc1 here?
Answer: inactive: 43.9%

Question: With COc1cc(NC(=O)CSc2ncnc3scc(-c4ccccc4)c23)c(C(=O)O)cc1OC as the compound, how does the Potency read?
Answer: inconclusive: 17.8 µM [inhibitor, single point]

Question: How did the Potency turn out when O=C(O)c1ccc(N/N=C/c2c(F)cccc2Cl)cc1 was run?
Answer: active: 2 µM

Question: N#Cc1ccc(OCC(=O)N/N=C(\CCC(=O)O)c2cccs2)cc1 was tested. Which “activity change, negative = inhibition” value did it give?
Answer: inactive: -5.58%

Question: For CC1(C)CC(CCN(Cc2ccccc2)C(=O)c2ccco2)(c2ccccc2)CCO1 (centres undefined), which Potency is on record?
Answer: inconclusive: 35.5 µM [activator, single point]

Question: For Cc1cc(N2CCCC2=O)cc(C)c1S(=O)(=O)NCCOc1ccc(C(C)(C)C)cc1, which Potency is on record?
Answer: inconclusive: 0.794 µM [activator, full curve]

Question: O=C(CNC(=O)c1cccc(Br)c1)N/N=C/c1cc(Br)cc(Br)c1O was tested. Which Potency did it give?
Answer: active: 2.51 µM

Question: COc1ccc(CN2CCN(C(=O)c3cccs3)CC2)cc1 was tested. Which “activity change, negative = inhibition” value did it give?
Answer: inactive: 6.72%

Question: Which Potency does the source give for Nc1c(-c2ccccc2)c(CSc2nc3ccccc3[nH]2)nn1-c1cccc(Cl)c1 here?
Answer: inconclusive: 0.891 µM [inhibitor, single point]

Question: Which Potency does the source give for CCC(CC)c1nnc(NC(=O)CN2C(=O)NC3(CCCC3)C2=O)s1 here?
Answer: inconclusive: 22.4 µM [activator, single point]

Question: For O=C(NC(Nc1nc2ccc([N+](=O)[O-])cc2s1)(C(F)(F)F)C(F)(F)F)c1ccccc1, which Potency is on record?
Answer: active: 6.31 µM

Question: How did the Potency turn out when O=C(CCCSc1nc2ccccc2[nH]1)NCc1ccc(Cl)cc1 was run?
Answer: inconclusive: 22.4 µM [activator, single point]

Question: Which “activity change, negative = inhibition” value does the source give for Cc1sc2ncnc(NCc3cccnc3)c2c1C here?
Answer: inactive: -3.64%

Question: Which Potency does the source give for O/N=C(\c1ccc(Cl)cc1)c1cc2ccccc2o1 here?
Answer: inconclusive: 11.2 µM [inhibitor, single point]

Question: CCCSc1nnc2n(-c3ccccc3OC)c(=O)c3c4c(sc3n12)CCC4 was tested. Which Potency did it give?
Answer: inconclusive: 11.2 µM [activator, single point]

Question: With CC(C)CSc1nnc2[nH]c(=O)cc(N)n12 as the compound, how does the Potency read?
Answer: inconclusive: 4.47 µM [activator, single point]

Question: How did the Potency turn out when Cc1ccc(C2CC(=O)NC(SCc3ccccc3)=C2C#N)cc1 (centres undefined) was run?
Answer: inconclusive: 12.6 µM [activator, single point]

Question: For Cc1cnc(NC(=O)CSc2nc3ccccc3s2)s1, which Potency is on record?
Answer: inconclusive: 2.24 µM [inhibitor, full curve, poor fit]

Question: How did the Potency turn out when Cn1c(/C=C/c2ccc(Cl)cc2Cl)c([N+](=O)[O-])c(=O)n(C)c1=O was run?
Answer: active: 11.2 µM

Question: Which “activity change, negative = inhibition” value does the source give for COc1ccc(CN2C(=O)CCC2(C)C(=O)NC2CCCCC2)c(OC)c1 (centres undefined) here?
Answer: inactive: 1.39%

Question: With CCOC(=O)C1(Cc2ccc(Cl)cc2)CCN(Cc2nccn2CC)CC1 as the compound, how does the Potency read?
Answer: active: 3.16 µM

Question: Which Potency does the source give for CC1CC=CC2C1C(=O)N(Cc1ccccc1)C2c1ccc2ccccc2c1 (centres undefined) here?
Answer: inconclusive: 35.5 µM [inhibitor, single point]

Question: How did the Potency turn out when Oc1c(CN2CCCCC2)cc(COCc2ccccc2)c2cccnc12 was run?
Answer: active: 0.316 µM

Question: With Cc1ccc2cn[nH]c2c1NC(=S)NC(=O)c1ccccc1 as the compound, how does the Potency read?
Answer: inconclusive: 12.6 µM [inhibitor, single point]

Question: For CCOC(=O)N1CCN(Cc2nc(-c3cccc(C)c3)no2)CC1, which Potency is on record?
Answer: inconclusive: 22.4 µM [activator, single point]

Question: How did the Potency turn out when COc1ccc2nc(NC(=O)c3ccc([N+](=O)[O-])o3)sc2c1 was run?
Answer: inconclusive: 35.5 µM [inhibitor, single point]

Question: For COC(=O)c1c(NC(=O)C2CCCCC2C(=O)O)sc2c1CCCCC2 (centres undefined), which “activity change, negative = inhibition” value is on record?
Answer: inactive: 4.66%

Question: O=C(CN1C(=O)CC(c2ccccc2)=Nc2ccccc21)NCc1ccco1 was tested. Which Potency did it give?
Answer: inconclusive: 35.5 µM [inhibitor, single point]

Question: With Cc1cnc(CNc2ncncc2-c2c(C)noc2C)cn1 as the compound, how does the “activity change, negative = inhibition” value read?
Answer: inactive: 13.9%

Question: How did the “activity change, negative = inhibition” value turn out when CCN(C(=O)CN1CCOCC1)c1c(N)n(Cc2ccccc2)c(=O)[nH]c1=O was run?
Answer: inactive: -36.5%

Question: For C=CCNS(=O)(=O)c1ccc(N2C(=O)c3ccccc3C2=O)cc1, which “activity change, negative = inhibition” value is on record?
Answer: inactive: 26.3%

Question: How did the Potency turn out when Cc1ccc(C(=O)NC(=S)NNC(=O)c2cccc([N+](=O)[O-])c2)cc1 was run?
Answer: active: 4.47 µM

Question: S=C(NCCc1ccccc1)Nc1ccc(Cl)cc1 was tested. Which Potency did it give?
Answer: active: 6.31 µM

Question: How did the “activity change, negative = inhibition” value turn out when Cc1ccccc1/C=C\c1nc2ccccc2c(=O)[nH]1 was run?
Answer: inactive: -4.73%

Question: How did the Potency turn out when Cc1ccc(S(=O)(=O)CC(=O)N2CCN(c3cccc(C(F)(F)F)c3)CC2)cc1 was run?
Answer: inconclusive: 25.1 µM [activator, single point]

Question: Cc1nn(-c2ccccc2)c2c1C(c1ccc([N+](=O)[O-])cc1)N1C(=N2)C(=O)Nc2ccccc21 (centres undefined) was tested. Which Potency did it give?
Answer: inconclusive: 12.6 µM [activator, partial curve]

Question: Which Potency does the source give for CC1=C(C(=O)Nc2ccccc2)C(c2ccc(Cl)cc2)n2c(s/c(=C/c3cccc(OCC(=O)O)c3)c2=O)=N1 (centres undefined) here?
Answer: inconclusive: 35.5 µM [activator, single point]

Question: For CC1=C(C(=O)OC2CCCCC2)C(c2ccccc2)NC(=O)N1 (centres undefined), which Potency is on record?
Answer: inconclusive: 12.6 µM [activator, partial curve]

Question: With c1ccc(Oc2nc(-c3ccccn3)nc3ccccc23)cc1 as the compound, how does the Potency read?
Answer: active: 0.631 µM

Question: For CCOC(=O)CSc1cccc2cccnc12, which Potency is on record?
Answer: inconclusive: 11.2 µM [inhibitor, partial curve, poor fit]

Question: Which Potency does the source give for COc1cccc(C(C)NC(=S)NCc2ccc(Cl)cc2)c1 (centres undefined) here?
Answer: active: 6.31 µM

Question: With CN(C)CCNC(=O)/C(=C/c1ccc(-c2ccc(Cl)cc2Cl)o1)NC(=O)c1ccccc1 as the compound, how does the Potency read?
Answer: inconclusive: 28.2 µM [inhibitor, single point]

Question: How did the “activity change, negative = inhibition” value turn out when Cc1nn(Cc2ccccc2)c(Cl)c1C(=O)OCc1nnc(-c2ccc(Cl)cc2)o1 was run?
Answer: inactive: 9.07%

Question: COC(=O)c1sc(NC(=O)c2c(F)cccc2F)c(C#N)c1C was tested. Which Potency did it give?
Answer: inconclusive: 12.6 µM [activator, partial curve]

Question: Which Potency does the source give for CSc1ccc(-c2nnn(Cc3ccc(Br)cc3)n2)cc1 here?
Answer: inconclusive: 2 µM [activator, full curve]

Question: For Cc1nn(C)c(C)c1NS(=O)(=O)c1ccc(N2CCCC2=O)cc1, which Potency is on record?
Answer: inconclusive: 12.6 µM [activator, partial curve]

Question: With O=C(C1CCN(c2nnc(-n3cccc3)s2)CC1)N1CCN(Cc2ccc3c(c2)OCO3)CC1 as the compound, how does the “activity change, negative = inhibition” value read?
Answer: inactive: 1.24%

Question: O=C(CCC(=O)OCC(=O)c1ccc(-c2ccccc2)cc1)Nc1cccc(Cl)c1 was tested. Which Potency did it give?
Answer: active: 7.08 µM

Question: Which Potency does the source give for COC(=O)[C@H](Cc1ccccc1)NC(=O)N1CCCCC1C (some centres undefined) here?
Answer: inconclusive: 6.31 µM [activator, partial curve]

Question: Which Potency does the source give for COc1cccc(-c2csc(N3CCN(Cc4ccccc4)CC3)n2)c1 here?
Answer: active: 12.6 µM

Question: How did the “activity change, negative = inhibition” value turn out when O=C(C1=C[C@@H](c2csc3ccccc23)C[C@@H](OCc2ccc(CO)cc2)O1)N1CCN(Cc2ccccc2)CC1 was run?
Answer: inactive: 21.8%

Question: With N#Cc1c(-c2ccco2)cc(-c2cccnc2)nc1N as the compound, how does the Potency read?
Answer: inconclusive: 0.794 µM [inhibitor, single point]

Question: For CSc1ccc(S(=O)(=O)Nc2ccc3c(c2)OCCO3)cc1, which Potency is on record?
Answer: inconclusive: 6.31 µM [activator, full curve]

Question: For Cc1ccc(OCC(=O)Nc2cccc(S(=O)(=O)N3CCCCC3)c2)c([N+](=O)[O-])n1, which “activity change, negative = inhibition” value is on record?
Answer: inactive: 31.3%

Question: COc1cc(OC)cc(C(=O)NC(=S)N2CCN(c3ccc(C(F)(F)F)cc3[N+](=O)[O-])CC2)c1 was tested. Which Potency did it give?
Answer: inconclusive: 35.5 µM [inhibitor, partial curve, poor fit]

Question: CCn1c(CNc2cccc(C(F)(F)F)c2)n[nH]c1=S was tested. Which Potency did it give?
Answer: inconclusive: 7.08 µM [inhibitor, partial curve]

Question: Which Potency does the source give for Cc1ccc(-c2nn3c(-c4ccco4)nnc3c3ccccc23)cc1S(=O)(=O)NCC1CCCO1 (centres undefined) here?
Answer: inconclusive: 7.08 µM [inhibitor, partial curve]

Question: O=C(CCCN1C(=O)/C(=C/c2ccccc2Cl)SC1=S)Nc1cccnc1 was tested. Which Potency did it give?
Answer: active: 0.224 µM

Question: How did the Potency turn out when CC(=O)c1cccc(NC(=O)C(=O)Nc2cccc3ccccc23)c1 was run?
Answer: inconclusive: 1.41 µM [inhibitor, full curve]

Question: With CCN1CCN(Cc2ccc(NC(=O)c3cc(NC(=O)c4cncc(-c5cccs5)c4)cc(OC)c3)cc2C(F)(F)F)CC1 as the compound, how does the Potency read?
Answer: inconclusive: 35.5 µM [inhibitor, single point]

Question: Which Potency does the source give for COc1ccc2c(C)nc(Nc3nc(C)cc(C)n3)nc2c1 here?
Answer: active: 0.251 µM

Question: How did the Potency turn out when COc1ccc(-c2nc(CS(=O)CC(=O)NCc3cccnc3)c(C)o2)cc1OC (centres undefined) was run?
Answer: active: 11.2 µM

Question: Which Potency does the source give for CCCCN(Cc1cc2cc(OC)ccc2[nH]c1=O)S(=O)(=O)c1ccc(C)cc1 here?
Answer: inconclusive: 35.5 µM [inhibitor, single point]

Question: How did the Potency turn out when COc1cccc2[nH]c3c(N4CC(C)CC(C)C4)ncnc3c12 (centres undefined) was run?
Answer: inconclusive: 3.98 µM [inhibitor, partial curve, poor fit]

Question: O=S1(=O)CC2N=C(N(Cc3ccc(F)cc3Cl)c3ccccc3F)SC2C1 (centres undefined) was tested. Which Potency did it give?
Answer: inconclusive: 6.31 µM [inhibitor, single point]

Question: O=C(COC(=O)C12CC3CC(CC(C3)C1)C2)Nc1ncc(Cl)cc1Cl was tested. Which Potency did it give?
Answer: inconclusive: 4.47 µM [inhibitor, single point]

Question: CCOc1cc(/C=C/C(=O)O)ccc1OCCOc1ccc(F)cc1 was tested. Which Potency did it give?
Answer: inconclusive: 12.6 µM [activator, single point]

Question: Which Potency does the source give for O=C1c2ccccc2C(=O)N1CCCCN(C(=O)c1cc2ccccc2oc1=O)c1ccc(F)cc1F here?
Answer: inconclusive: 10 µM [activator, partial curve]
